{"source": "PubChem BioAssay AID540256", "about": "(National Center for Advancing Translational Sciences (NCATS), 2011)", "note": "The whole screen tested about 300,000 compounds, of which about 3,700 (1.2%) were called active. Inconclusive results, whose numbers are uncertain, are shown with a selection of clear calls. Calls follow the shape of the full dose curve; tested in HEK293 cells. Potencies of inconclusive entries are doubtful fits and often do not repeat. Potency is read from the fitted curve at half-maximal effect."}
{"test": "qHTS for Inhibitors of binding or entry into cells for Lassa Virus; also: nearly all actives have a fitted effect of over 50% in size", "conditions": "Lassa virus pseudotype entry inhibition, cell reporter; series mostly up to 37.9 µM"}
{"smiles": "Cc1cc(O)c(C2(C(F)(F)F)NCCNC2=O)cc1C", "note": "(stereo unspecified)", "Potency": "inactive"}
{"smiles": "CN1CCN(CCCNC(=O)c2cnn(-c3ccccc3)c2-n2cccc2)CC1", "Potency": "inconclusive: 5.01 µM [activator, single point]"}
{"smiles": "Cc1ccc(OCC(=O)Nc2ccc(S(=O)(=O)Nc3ncccn3)cc2)c(C(C)(C)C)c1", "Potency": "inactive"}
{"smiles": "CCOCCCNC(=O)NC(CCC(C)C)c1c(-n2cccc2)sc2c1CCN(C)C2", "note": "(stereo unspecified)", "Potency": "inactive"}
{"smiles": "Cc1cc(NC(=O)Cn2c(=O)n(Cc3ccccc3)c(=O)c3ccccc32)no1", "Potency": "inconclusive: 35.5 µM [inhibitor, single point]"}
{"smiles": "Cc1ccc(-c2cc(C(=O)N3CCN(c4ccccc4O)CC3)c3ccccc3n2)o1", "Potency": "inconclusive: 7.94 µM [inhibitor, partial curve, poor fit]"}
{"smiles": "CCOc1ccccc1NC(=O)N1CCCC(c2nc3c(nnn3Cc3ccc(C)cc3)c(=O)[nH]2)C1", "note": "(stereo unspecified)", "Potency": "inconclusive: 13 µM [inhibitor, partial curve, poor fit]"}
{"smiles": "COc1ccc(CNC(=O)c2ccc(Cn3c(=O)c4cccn4c4cccnc43)cc2)cc1OC", "Potency": "inactive"}
{"smiles": "CCN1CCN(C(=O)c2sc3nc(C)nc(N4CCC(C)CC4)c3c2C)CC1", "Potency": "inconclusive: 7.94 µM [inhibitor, partial curve]"}
{"smiles": "O=C1/C(=C\\c2cccnc2)SC(=S)N1C1CCS(=O)(=O)C1", "note": "(stereo unspecified)", "Potency": "inconclusive: 29.1 µM [inhibitor, single point]"}
{"smiles": "CCOC(=O)N1CCN(c2cc(N3CCOCC3)c(F)cc2[N+](=O)[O-])CC1", "Potency": "active: 7.94 µM"}
{"smiles": "O=C1NC(=O)N(CCNc2ncc(C(F)(F)F)cc2Cl)C(=O)C1Cc1ccc(Cl)cc1", "note": "(stereo unspecified)", "Potency": "inactive"}
{"smiles": "CCOc1ccccc1CNC(=O)c1ccc2nc(Cc3ccc(OC)cc3)oc2c1", "Potency": "inactive"}
{"smiles": "COc1cccc(C(=O)Oc2ccc(/C=N/Nc3ccc(C(=O)O)cc3)cc2OC)c1", "Potency": "inconclusive: 35.5 µM [inhibitor, single point]"}
{"smiles": "CC12CCC(C/C1=N\\N=C1\\NC(=O)/C(=C\\c3ccc(Cl)cc3)S1)C2(C)C", "note": "(stereo unspecified)", "Potency": "inconclusive: 35.5 µM [inhibitor, single point]"}
{"smiles": "Cc1c(Cl)cccc1NC(=S)N1CCCN(Cc2ccc(F)cc2)C1", "Potency": "inactive"}
{"smiles": "CCn1c(=O)cc(SCC(=O)NCc2ccco2)c2ccccc21", "Potency": "inconclusive: 20.6 µM [inhibitor, partial curve, poor fit]"}
{"smiles": "O=C(COC(=O)c1cc2ccccc2oc1=O)Nc1cccc(S(=O)(=O)N2CCCCCC2)c1", "Potency": "inconclusive: 14.1 µM [activator, partial curve, poor fit]"}
{"smiles": "COc1cccc(C(=O)N2CCc3c([nH]c4ccccc34)C2c2ccc(SC)cc2)c1", "note": "(stereo unspecified)", "Potency": "inconclusive: 12.6 µM [inhibitor, partial curve, poor fit]"}
{"smiles": "Cc1ccc(S(=O)(=O)N/N=C\\c2ccccc2OCc2ccccc2)cc1", "Potency": "inconclusive: 14.6 µM [inhibitor, single point]"}
{"smiles": "Nc1[nH]ncc1-c1ccc(Cl)cc1", "Potency": "inconclusive: 22.4 µM [inhibitor, single point]"}
{"smiles": "O=C(Cn1cc[n+](Cc2ccccc2)c1)c1ccc([N+](=O)[O-])cc1", "Potency": "inconclusive: 31.6 µM [inhibitor, single point]"}
{"smiles": "Cc1ccc(SCC(=O)Nc2ccc(F)cc2[N+](=O)[O-])cc1C", "Potency": "inconclusive: 0.116 µM [inhibitor, full curve, poor fit]"}
{"smiles": "COc1cc(CNCCc2ccc(S(N)(=O)=O)cc2)ccc1OCc1ccc(Cl)cc1", "Potency": "inconclusive: 23.1 µM [inhibitor, partial curve]"}
{"smiles": "COc1ccccc1NC(=O)CSc1nnc2c3ccccc3n(C(C)C)c2n1", "Potency": "inconclusive: 11.2 µM [inhibitor, partial curve, poor fit]"}
{"smiles": "CCOC(=O)N1CCN(c2ncc3c(n2)CC(c2ccccc2O)CC3=O)CC1", "note": "(stereo unspecified)", "Potency": "inconclusive: 25.1 µM [inhibitor, partial curve, poor fit]"}
{"smiles": "OCCN(Cc1ccccc1)Cc1ccc(Cl)cc1Cl", "Potency": "inconclusive: 0.184 µM [inhibitor, full curve, poor fit]"}
{"smiles": "O=c1[nH]c2ccccc2nc1-c1ccc(Cl)cc1", "Potency": "inconclusive: 1 µM [activator, full curve, poor fit]"}
{"smiles": "O=C1SC(c2ccccc2)=C/C1=C\\N1CCCCC1", "Potency": "inactive"}
{"smiles": "c1csc(-c2nc3ccccn3c2NC2CCCCC2)c1", "Potency": "inconclusive: 7.94 µM [inhibitor, partial curve, poor fit]"}
{"smiles": "O=Cc1ccc(OCc2ccc3ccccc3c2)cc1", "Potency": "inconclusive: 20 µM [inhibitor, single point]"}
{"smiles": "CC1(C)Cc2cccc(OCC(=O)N3CCN(c4ccccc4Cl)CC3)c2O1", "Potency": "inconclusive: 20 µM [inhibitor, single point]"}
{"smiles": "CCCOc1ccc(C(=O)CCN2CCN(C(=O)OCC)CC2)cc1", "Potency": "inconclusive: 35.5 µM [inhibitor, single point]"}
{"smiles": "CNc1nnc(-c2ccc(N(C)C)cc2)s1", "Potency": "inconclusive: 2.91 µM [inhibitor, full curve, poor fit]"}
{"smiles": "Cc1cc(C)cc(Nc2cc(C)nc3nncn23)c1", "Potency": "inactive"}
{"smiles": "Cc1ccc2nc(CSc3nnc(NC(=O)c4cccc(Br)c4)s3)cc(=O)n2c1", "Potency": "inconclusive: 10 µM [inhibitor, partial curve]"}
{"smiles": "O=C(Cn1c(=O)n2ncnc2c2c3c(sc21)CCCC3)c1ccccc1", "Potency": "inactive"}
{"smiles": "Cc1ccc(C(=O)N2CCCCC2C(=O)O)cc1S(=O)(=O)N1CCCCC1", "note": "(stereo unspecified)", "Potency": "inconclusive: 7.08 µM [activator, partial curve, poor fit]"}
{"smiles": "CCOC(=O)c1ccc(NC(=O)CN2c3ccccc3S(=O)(=O)c3ccccc32)cc1", "Potency": "inconclusive: 28.2 µM [inhibitor, single point]"}
{"smiles": "CCN(C(=O)CSc1nc2ccccc2n1CC(=O)NCc1ccc(OC)cc1)c1ccccc1", "Potency": "inconclusive: 3.55 µM [inhibitor, partial curve, poor fit]"}
{"smiles": "COC(=O)c1c(N)sc(C(=O)NCCc2ccccc2)c1C", "Potency": "inconclusive: 1.41 µM [inhibitor, full curve, poor fit]"}
{"smiles": "Cc1cccc(-n2c(SCC(N)=O)nc3c(c2=O)C2(CCCCC2)Cc2ccccc2-3)c1", "Potency": "inconclusive: 35.5 µM [inhibitor, single point]"}
{"smiles": "CC(=O)c1ccc2c(c1)Nc1ccccc1S2", "Potency": "inactive"}
{"smiles": "Cc1nnc(CN(C)C(=O)c2cc(COc3ccc(F)cc3Cl)on2)o1", "Potency": "inactive"}
{"smiles": "Cc1ccc(CNC(=O)CNC(=S)N(Cc2ccccc2)Cc2cccnc2)cc1", "Potency": "inconclusive: 35.5 µM [inhibitor, partial curve, poor fit]"}
{"smiles": "CC(C)C(=O)Nc1nc(-c2ccccc2)ns1", "Potency": "inconclusive: 0.92 µM [activator, full curve, poor fit]"}
{"smiles": "OC(CNCc1ccccc1Cl)COc1ccc(F)cc1", "note": "(stereo unspecified)", "Potency": "inactive"}
{"smiles": "COc1cc2c3nnc(-c4ccc(F)cc4)c-3cn(Cc3ccccc3F)c2cc1OC", "Potency": "inconclusive: 25.1 µM [inhibitor, single point]"}
{"smiles": "Cc1[nH]nc(SCC(=O)N2CCCCCC2)c1[N+](=O)[O-]", "Potency": "inconclusive: 35.5 µM [inhibitor, single point]"}
{"smiles": "Cc1[nH]n(-c2ccccc2)c(=O)c1N=Nc1ccccc1O", "Potency": "inconclusive: 7.08 µM [inhibitor, full curve, poor fit]"}
{"smiles": "C=CCNC(=O)NC(=O)CN1C(=O)NC(c2ccccc2)(c2ccccc2)C1=O", "Potency": "inconclusive: 7.08 µM [inhibitor, full curve, poor fit]"}
{"smiles": "Cc1ccc(C23CC4CC(CC(CC(=O)N5CCOCC5)(C4)C2)C3)cc1", "Potency": "active: 8.2 µM"}
{"smiles": "O=[N+]([O-])c1ccc(-c2nn(-c3ccccc3)cc2/C=N/n2c(-c3cccs3)n[nH]c2=S)cc1", "Potency": "inconclusive: 6.31 µM [inhibitor, single point]"}
{"smiles": "COc1cccc(CNC(=O)CCCN2C(=O)CCn3nc(-c4cccn4C)cc32)c1", "Potency": "inactive"}
{"smiles": "Cc1ccc(S(=O)(=O)N(CC(=O)Nc2cccc([N+](=O)[O-])c2)C2CCCCC2)cc1", "Potency": "inconclusive: 11.2 µM [inhibitor, partial curve]"}
{"smiles": "Cc1c(Nc2ccc(C=O)cc2)c(=O)n(-c2ccccc2)n1C", "Potency": "inconclusive: 3.98 µM [inhibitor, full curve, poor fit]"}
{"smiles": "O=C(c1cc(-c2ccccn2)nc2ccccc12)N1CCN(c2ncccn2)CC1", "Potency": "inactive"}
{"smiles": "O=[N+]([O-])c1ccccc1/C=N/OCc1ccccc1", "Potency": "inconclusive: 7.08 µM [activator, partial curve, poor fit]"}
{"smiles": "COC(=O)c1ccccc1NC(=O)CNc1cc(Cl)ccc1N1CCOCC1", "Potency": "inconclusive: 10 µM [inhibitor, partial curve, poor fit]"}
{"smiles": "CN(C)S(=O)(=O)N1CCN(c2cccc(Cl)c2)CC1", "Potency": "inconclusive: 4.61 µM [inhibitor, single point]"}
{"smiles": "COc1ccc(C(=O)C2CCN(CC(=O)Nc3ccc(OC)cc3OC)CC2)cc1", "Potency": "inactive"}
{"smiles": "COc1ccccc1CNC(=O)CSc1nc(=O)n(Cc2ccncc2)c2c1CCC2", "Potency": "inconclusive: 1.41 µM [activator, partial curve]"}
{"smiles": "O=C1/C(=C/c2ccccc2F)SC(=S)N1CCC(=O)N1CCCCC1CCO", "note": "(stereo unspecified)", "Potency": "inconclusive: 35.5 µM [inhibitor, single point]"}
{"smiles": "CCC(C)c1ccc(O)c(NC(=O)c2cccnc2)c1", "note": "(stereo unspecified)", "Potency": "inactive"}
{"smiles": "O=C(O)c1cn(-c2ccc(N3CCCC3)c(F)c2)c2c(F)c(F)c(F)cc2c1=O", "Potency": "inactive"}
{"smiles": "Cc1ccc(C(=O)C2CCN(CC(=O)NC3CCCC3)CC2)cc1", "Potency": "inconclusive: 8.91 µM [activator, partial curve, poor fit]"}
